# From article doi:10.1101/2021.10.26.465776
# No constants are given. Whether binding was seen depends on the method and setting. Some results given as binding are weak or reduced against the parent protein; the word gives no strength.
# T1: Nup85 (human (endogenous in HeLa)) (UniProt Q9BW27)
# T1 sequence: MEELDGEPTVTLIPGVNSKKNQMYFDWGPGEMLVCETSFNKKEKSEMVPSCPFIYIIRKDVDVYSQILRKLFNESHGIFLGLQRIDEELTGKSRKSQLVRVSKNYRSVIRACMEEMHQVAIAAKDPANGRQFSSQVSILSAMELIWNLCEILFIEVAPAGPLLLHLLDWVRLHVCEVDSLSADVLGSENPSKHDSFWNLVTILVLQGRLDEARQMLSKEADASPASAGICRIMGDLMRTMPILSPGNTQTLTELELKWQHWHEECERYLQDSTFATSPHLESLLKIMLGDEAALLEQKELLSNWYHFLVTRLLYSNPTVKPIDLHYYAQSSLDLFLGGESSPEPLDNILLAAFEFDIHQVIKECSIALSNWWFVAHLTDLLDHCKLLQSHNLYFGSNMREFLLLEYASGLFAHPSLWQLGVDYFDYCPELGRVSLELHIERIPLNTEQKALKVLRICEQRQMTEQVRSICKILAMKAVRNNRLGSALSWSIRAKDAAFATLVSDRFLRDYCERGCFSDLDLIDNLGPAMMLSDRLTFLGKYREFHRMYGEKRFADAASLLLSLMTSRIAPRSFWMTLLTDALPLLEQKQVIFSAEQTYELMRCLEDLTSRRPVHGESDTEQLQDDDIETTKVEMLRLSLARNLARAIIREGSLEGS
# T2: NDC1 (human (endogenous in HeLa)) (UniProt Q9BTX1)
# T2 sequence: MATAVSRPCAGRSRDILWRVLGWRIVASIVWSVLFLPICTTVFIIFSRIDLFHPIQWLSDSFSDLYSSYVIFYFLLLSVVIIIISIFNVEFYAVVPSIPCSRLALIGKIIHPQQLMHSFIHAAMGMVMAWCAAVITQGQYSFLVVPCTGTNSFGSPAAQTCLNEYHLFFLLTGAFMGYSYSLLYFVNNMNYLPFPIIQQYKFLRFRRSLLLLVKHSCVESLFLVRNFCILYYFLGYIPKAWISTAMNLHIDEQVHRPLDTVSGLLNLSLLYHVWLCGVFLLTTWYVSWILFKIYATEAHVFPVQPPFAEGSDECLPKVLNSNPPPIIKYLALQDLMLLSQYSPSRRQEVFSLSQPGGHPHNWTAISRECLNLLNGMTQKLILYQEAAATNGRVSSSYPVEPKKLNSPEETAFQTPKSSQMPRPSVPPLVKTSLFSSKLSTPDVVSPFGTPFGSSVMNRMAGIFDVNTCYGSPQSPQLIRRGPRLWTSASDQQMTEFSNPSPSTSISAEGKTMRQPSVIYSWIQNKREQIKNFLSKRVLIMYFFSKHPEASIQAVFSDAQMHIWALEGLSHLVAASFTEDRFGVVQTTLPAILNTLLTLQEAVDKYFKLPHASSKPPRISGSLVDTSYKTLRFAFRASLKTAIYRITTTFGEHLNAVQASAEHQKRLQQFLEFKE
# How the values were obtained:
# [1] = target: T1, Nup85 (human (endogenous in HeLa)); experiment: cryo-EM structure
# [2] = target: T2, NDC1 (human (endogenous in HeLa)); experiment: cryo-EM structure
binding [1],binding [2],Binder
binds,,"Nup43 (protein, UniProt Q8NFH3 1-380) MEEIYAKFVSQKISKTRWRPLPPGSLQTAETFATGSWDNEENYISLWSIGDFGNLDSDGGFEGDHQLLCDIRHHGDVMDLQFFDQERIVAASSTGCVTVFLHHPNNQTLSVNQQWTTAHYHTGPGSPSYSSAPCTGVVCNNPEIVTVGEDGRINLFRADHKEAVRTIDNADSSTLHAVTFLRTPEILTVNSIGQLKIWDFRQQGNEPSQILSLTGDRVPLHCVDRHPNQQHVVATGGQDGMLSIWDVRQGTMPVSLLKAHEAEMWEVHFHPSNPEHLFTCSEDGSLWHWDASTDVPEKSSLFHQGGRSSTFLSHSISNQANVHQSVISSWLSTDPAKDRIEITSLLPSRSLSVNTLDVLGPCLVCGTDAEAIYVTRHLFS"
,binds,"Aladin (protein, UniProt Q9NRG9 1-546) MCSLGLFPPPPPRGQVTLYEHNNELVTGSSYESPPPDFRGQWINLPVLQLTKDPLKTPGRLDHGTRTAFIHHREQVWKRCINIWRDVGLFGVLNEIANSEEEVFEWVKTASGWALALCRWASSLHGSLFPHLSLRSEDLIAEFAQVTNWSSCCLRVFAWHPHTNKFAVALLDDSVRVYNASSTIVPSLKHRLQRNVASLAWKPLSASVLAVACQSCILIWTLDPTSLSTRPSSGCAQVLSHPGHTPVTSLAWAPSGGRLLSASPVDAAIRVWDVSTETCVPLPWFRGGGVTNLLWSPDGSKILATTPSAVFRVWEAQMWTCERWPTLSGRCQTGCWSPDGSRLLFTVLGEPLIYSLSFPERCGEGKGCVGGAKSATIVADLSETTIQTPDGEERLGGEAHSMVWDPSGERLAVLMKGKPRVQDGKPVILLFRTRNSPVFELLPCGIIQGEPGAQPQLITFHPSFNKGALLSVGWSTGRIAHIPLYFVNAQFPRFSPVLGRAQEPPAGGGGSIHDLPLFTETSPTSAPWDPLPGPPPVLPHSPHSHL"
